Laboratory results: article PMC3694841

Target: T1, Slit (pUAST-slit) (Drosophila melanogaster) (UniProt P24014)
T1 sequence: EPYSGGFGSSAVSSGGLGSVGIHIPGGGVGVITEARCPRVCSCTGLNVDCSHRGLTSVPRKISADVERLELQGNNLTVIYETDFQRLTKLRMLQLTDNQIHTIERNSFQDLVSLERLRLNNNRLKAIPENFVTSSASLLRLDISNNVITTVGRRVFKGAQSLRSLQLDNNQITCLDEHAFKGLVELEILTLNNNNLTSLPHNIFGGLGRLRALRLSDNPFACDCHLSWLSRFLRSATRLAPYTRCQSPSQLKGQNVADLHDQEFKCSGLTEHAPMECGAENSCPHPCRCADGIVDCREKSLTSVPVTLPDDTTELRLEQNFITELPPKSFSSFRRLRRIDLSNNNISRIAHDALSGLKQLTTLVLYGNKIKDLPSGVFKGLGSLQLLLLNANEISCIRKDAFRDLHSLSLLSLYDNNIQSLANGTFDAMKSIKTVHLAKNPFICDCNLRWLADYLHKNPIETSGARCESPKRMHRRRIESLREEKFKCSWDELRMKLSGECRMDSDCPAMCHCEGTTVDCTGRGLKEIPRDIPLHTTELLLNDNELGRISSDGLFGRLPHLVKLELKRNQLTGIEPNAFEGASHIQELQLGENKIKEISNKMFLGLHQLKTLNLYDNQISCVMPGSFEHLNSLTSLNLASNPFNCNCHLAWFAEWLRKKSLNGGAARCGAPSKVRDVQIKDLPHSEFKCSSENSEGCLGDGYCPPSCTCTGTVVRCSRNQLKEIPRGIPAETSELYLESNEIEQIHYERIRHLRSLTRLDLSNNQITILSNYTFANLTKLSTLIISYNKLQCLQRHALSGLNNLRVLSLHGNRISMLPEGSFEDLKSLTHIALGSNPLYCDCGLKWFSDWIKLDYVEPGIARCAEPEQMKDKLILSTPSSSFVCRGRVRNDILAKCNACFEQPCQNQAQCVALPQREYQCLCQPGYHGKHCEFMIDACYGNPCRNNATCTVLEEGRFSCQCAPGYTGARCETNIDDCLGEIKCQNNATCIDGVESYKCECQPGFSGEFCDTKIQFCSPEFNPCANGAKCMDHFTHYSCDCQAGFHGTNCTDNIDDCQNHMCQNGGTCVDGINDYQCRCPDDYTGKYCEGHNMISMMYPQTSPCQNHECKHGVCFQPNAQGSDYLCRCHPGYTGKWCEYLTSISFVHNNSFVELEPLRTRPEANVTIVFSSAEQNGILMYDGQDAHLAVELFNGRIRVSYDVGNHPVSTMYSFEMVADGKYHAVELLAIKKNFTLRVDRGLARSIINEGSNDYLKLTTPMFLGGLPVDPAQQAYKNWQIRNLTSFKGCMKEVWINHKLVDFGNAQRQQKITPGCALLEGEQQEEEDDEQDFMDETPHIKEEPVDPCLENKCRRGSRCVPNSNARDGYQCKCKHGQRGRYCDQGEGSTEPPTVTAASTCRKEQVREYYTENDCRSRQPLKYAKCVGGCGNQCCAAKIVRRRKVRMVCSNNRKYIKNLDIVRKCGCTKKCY
Assay: co-IP; soluble lysate (0.5% NP40 in PBS) of S2 (SR+) cells co-transfected with Robo, Slit and Mp; protein A/G beads pre-coupled with mouse anti Slit antibody (control: normal mouse serum), overnight at 4°C; Western blot with anti Slit, Mp and Robo

| binding | Substance |
| --- | --- |
| binds | Multiplexin (Mp), cDNA 3hnc1 (Drosophila melanogaster) |
| binds | Robo-HA (pUAST-robo-HA) (Drosophila melanogaster) (receptor) |

Results are given in words; binding and its absence hold for the method and conditions named. In cells and extracts the contact can be indirect. Binding calls can cover weak binding; strength is not graded here.
